Results deposited as PubChem BioAssay AID743454 (Peter MacCallum Cancer Centre, 2014)
Purpose: 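Knock-downs lowering viability or raising caspase 3/7 activity in vorinostat-treated resistant cells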 (primary screen). Cell system: human HCT116-VR colon cancer cells, selected for vorinostat resistance. Reagents: siRNA pool against human genes, 40 nM siRNA pool. Timing: vorinostat for 24 h, read-out about 72 h after transfection. Challenge: vorinostat at 2.5 µM final. Measurement: 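Cell viability by CellTiter-Fluor and caspase 3/7 activity by luminescence, each scaled to mock wells per plate, duplicates averaged, then robust z-scored over all plates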. Reading the numbers: viability robust z-score: higher = more viable cells than screen typical; caspase robust z-score: higher = more caspase 3/7 activity than screen typical. Active means: 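Hits are knock-downs in viability class RV1/RV2 or caspase class CA1/CA2, excluding ones that killed cells in the no-drug cell-count arm; hits then retested with single siRNAs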.
The deposit covers about 18,000 reagents; this is a random part of them. In the full data, 450 (2.5%) got an active call. 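Single biological run; no consistent viability z cut-off exists, so the class columns, not z-scores, define the calls.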 Entries without a mark were called inactive.

PDAP1 (PDGFA associated protein 1) → viability hit class: no change; caspase hit class: no change; viability robust z-score: 2.5; caspase robust z-score: 0.03
NUDCD3 (NudC domain containing 3) → viability hit class: no change; caspase hit class: no change; viability robust z-score: 0.31; caspase robust z-score: -0.86
SPRED3 (sprouty related EVH1 domain containing 3) → viability hit class: no change (active); caspase hit class: CA1 (caspase activation); viability robust z-score: -2.7; caspase robust z-score: 8.13
VIP (vasoactive intestinal peptide) → viability hit class: no change; caspase hit class: no change; viability robust z-score: -1.07; caspase robust z-score: -0.97
IRF8 (interferon regulatory factor 8) → viability hit class: no change; caspase hit class: no change; viability robust z-score: 0.03; caspase robust z-score: -0.82
TTC22 (tetratricopeptide repeat domain 22) → viability hit class: RV1 (reduced viability) (active); caspase hit class: no change; viability robust z-score: -3.26; caspase robust z-score: 1.73
GARIN5A (golgi associated RAB2 interactor 5A) → viability hit class: no change; caspase hit class: no change; viability robust z-score: -0.78; caspase robust z-score: 1.68
GML (glycosylphosphatidylinositol anchored molecule like) → viability hit class: no change; caspase hit class: no change; viability robust z-score: -0.18; caspase robust z-score: 0.14
GSTP1 (glutathione S-transferase pi 1) → viability hit class: no change; caspase hit class: no change; viability robust z-score: -0.6; caspase robust z-score: 2.32
CNGA2 (cyclic nucleotide gated channel subunit alpha 2) → viability hit class: no change; caspase hit class: no change; viability robust z-score: 1.5; caspase robust z-score: -0.62
RHOT2 (ras homolog family member T2) → viability hit class: no change; caspase hit class: no change; viability robust z-score: 0.64; caspase robust z-score: -0.08
TLDC2 (TBC/LysM-associated domain containing 2) → viability hit class: no change; caspase hit class: no change; viability robust z-score: 0.73; caspase robust z-score: -0.08
LMOD3 (leiomodin 3) → viability hit class: no change; caspase hit class: no change; viability robust z-score: -0.56; caspase robust z-score: -0.79
AANAT (aralkylamine N-acetyltransferase) → viability hit class: no change; caspase hit class: no change; viability robust z-score: -2.51; caspase robust z-score: -0.34
KIF5C (kinesin family member 5C) → viability hit class: no change; caspase hit class: no change; viability robust z-score: 0.12; caspase robust z-score: -0.32
SMCP (sperm mitochondria associated cysteine rich protein) → viability hit class: no change; caspase hit class: no change; viability robust z-score: -1.1; caspase robust z-score: 0
CFAP299 (cilia and flagella associated protein 299) → viability hit class: no change; caspase hit class: no change; viability robust z-score: -2.17; caspase robust z-score: 0.3
HBB (hemoglobin subunit beta) → viability hit class: no change; caspase hit class: no change; viability robust z-score: -0.58; caspase robust z-score: 0.92
SKI (SKI proto-oncogene) → viability hit class: no change; caspase hit class: no change; viability robust z-score: 1.66; caspase robust z-score: 1.77
SLC25A6 → viability hit class: no change; caspase hit class: no change; viability robust z-score: 0.45; caspase robust z-score: 0.12
PLEKHG5 (pleckstrin homology and RhoGEF domain containing G5) → viability hit class: no change; caspase hit class: no change; viability robust z-score: 0.55; caspase robust z-score: 1.01
